Taken from: PubChem BioAssay AID1259331 (Drosophila RNAi Screening Center, 2017)
Screen: 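Knock-downs that alter ATP level after a high zinc chloride dose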 (primary screen). Cell system: Drosophila S2R+ cells. Reagent: long dsRNA against Drosophila genes. Time to read-out: 5 days (4 days knock-down, then 1 day zinc). Conditions: zinc chloride at 15 mM final level for 1 day. Measured: 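Luminescent ATP assay standing in for viability; Z score is the mean over three replicate plates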. Scale: mean Z score: higher = more ATP than other wells, better survival under zinc; ATP luminescence: higher = more ATP, more viable cells. Rule for the call: 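a reagent is called a hit when its Z score is above 1.5 or below -1.5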. Calls: active = hit, ATP up or down; inactive = not a hit.
The whole screen tested about 3,100 reagents; below is a part drawn at random. 126 of them (4.1%) were called active. 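Calls are per reagent; zinc was so toxic that few knock-downs lowered ATP further, so most hits raise ATP.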 Raw values vary from plate to plate and are shown uncorrected. Reagents against one gene are numbered here. Names joined by + are all predicted targets of the reagent. Reagent sequences are not shown. Not given: the amount of reagent.

target gene,reagent,mean Z score,"ATP luminescence, replicate 1","ATP luminescence, replicate 2",call
Tollo,1,-0.319,72928,55247,inactive
Tollo,2,-0.52,58506,50686,inactive
CG17991,1,0.407,70785,74861,inactive
Fad2,1,1.88,1.16e5,85862,active
Fad2,2,-0.705,43813,48271,inactive
Abca3 (ATP binding cassette subfamily A member 3),1,-0.287,37673,41291,inactive
PlexA (Plexin A),1,-0.277,41950,42079,inactive
asRNA:CR30267 + CG42260,1,0.26,63444,67406,inactive
SIFaR (SIFamide receptor),1,0.515,38393,69601,inactive
SIFaR (SIFamide receptor),2,-0.179,36387,55251,inactive
sns (sticks and stones),1,2.33,1.24e5,1.19e5,active
sns (sticks and stones),2,-0.215,39045,44394,inactive
ChT (Choline transporter),1,-0.156,43759,41685,inactive
rost (rolling stone),1,0.0382,56791,56722,inactive
Toll-4,1,-0.164,49898,41445,inactive
Toll-4,2,-0.763,39474,38136,inactive
ppk23 (pickpocket 23),1,0.268,50086,45491,inactive
ppk23 (pickpocket 23),2,0.0389,58437,59287,inactive
CG45067 + CG45066,1,0.183,80110,67543,inactive
CG45067 + CG45066,2,0.337,67372,62381,inactive
VGlut (Vesicular glutamate transporter),1,-0.126,48200,47180,inactive
VGlut (Vesicular glutamate transporter),2,-0.403,60872,51475,inactive
CG11898,1,-0.632,43249,50721,inactive
CG11898,2,0.109,56259,51201,inactive
CG7582,1,0.0514,65382,68452,inactive
CG7582,2,-0.325,50121,53224,inactive
ldd (lipid droplet defective),1,-0.337,38239,38942,inactive
ldd (lipid droplet defective),2,-0.445,41959,45148,inactive

3 neighbouring records already listed, for reference:
target gene,reagent,mean Z score,"ATP luminescence, replicate 1","ATP luminescence, replicate 2",call
Toll-4,1,-0.164,49898,41445,inactive
Toll-4,2,-0.763,39474,38136,inactive
ppk23 (pickpocket 23),1,0.268,50086,45491,inactive
